The results in this text go back to patent US20140294773A1.

No constants are given. Whether binding was seen depends on the method and setting. In cells and extracts the contact can be indirect. Some results given as binding are weak or reduced against the parent protein; the word gives no strength. Tags and fused reporters may be left off the sequences shown.

Assay [1] deals with T1, CascadeΔCse1 with N-terminally Strep-tag II tagged Cse2 (Cse2, Cas7, Cas5, Cas6e) (Escherichia coli str. K-12 substr. MG1655) (UniProt P76632).
T1 sequence 1: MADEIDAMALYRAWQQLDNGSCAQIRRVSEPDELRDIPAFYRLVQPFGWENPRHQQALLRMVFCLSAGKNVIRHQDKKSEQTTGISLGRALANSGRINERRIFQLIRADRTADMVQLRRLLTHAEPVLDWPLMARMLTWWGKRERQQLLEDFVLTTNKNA
T1 sequence 2: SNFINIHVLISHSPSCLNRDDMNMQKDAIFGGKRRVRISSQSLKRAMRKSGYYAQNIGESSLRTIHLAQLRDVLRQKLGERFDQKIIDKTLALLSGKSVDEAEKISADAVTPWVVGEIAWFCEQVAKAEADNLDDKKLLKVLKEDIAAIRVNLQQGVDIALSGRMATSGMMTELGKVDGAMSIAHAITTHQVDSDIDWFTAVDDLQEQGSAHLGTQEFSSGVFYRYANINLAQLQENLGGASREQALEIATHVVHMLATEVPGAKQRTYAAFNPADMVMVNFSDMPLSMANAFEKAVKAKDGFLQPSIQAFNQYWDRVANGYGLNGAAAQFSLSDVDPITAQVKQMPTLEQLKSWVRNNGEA
T1 sequence 3: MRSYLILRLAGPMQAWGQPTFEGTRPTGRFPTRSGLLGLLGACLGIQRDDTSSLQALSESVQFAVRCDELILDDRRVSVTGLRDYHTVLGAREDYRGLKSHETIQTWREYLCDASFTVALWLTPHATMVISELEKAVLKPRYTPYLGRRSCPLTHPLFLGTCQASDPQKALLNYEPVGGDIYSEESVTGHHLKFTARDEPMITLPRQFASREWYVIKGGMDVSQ
T1 sequence 4: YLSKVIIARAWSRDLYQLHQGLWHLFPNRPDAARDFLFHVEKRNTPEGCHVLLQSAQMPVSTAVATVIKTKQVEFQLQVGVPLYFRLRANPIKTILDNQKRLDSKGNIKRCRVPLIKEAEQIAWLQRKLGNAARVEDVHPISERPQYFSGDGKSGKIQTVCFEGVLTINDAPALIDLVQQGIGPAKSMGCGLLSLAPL
Nature of the assay: co-expression and Strep-tag affinity co-purification, SDS-PAGE; J3 crRNA.

Assay [2] has as its target T1, CascadeΔCse1 with N-terminally Strep-tag II tagged Cse2 (Cse2, Cas7, Cas5, Cas6e) (Escherichia coli str. K-12 substr. MG1655). As to the kind of experiment: co-expression and Streptactin affinity co-purification, SDS-PAGE; P7 crRNA.
Assay [3] shares this target. As to the kind of experiment: co-expression and Streptactin affinity co-purification, SDS-PAGE; M13 crRNA.

B1: artificial E. coli Cas3-Cse1 fusion protein with the polypeptide linker sequence from S. griseus (protein)
chain: MEPFKYICHYWGKSSKSLTKGNDIHLLIYHCLDVAAVADCWWDQSVVLQNTFCRNEMLSKQRVKAWLLFFIALHDIGKFDIRFQYKSAESWLKLNPATPSLNGPSTQMCRKFNHGAAGLYWFNQDSLSEQSLGDFFSFFDAAPHPYESWFPWVEAVTGHHGFILHSQDQDKSRWEMPASLASYAAQDKQAREEWISVLEALFLTPAGLSINDIPPDCSSLLAGFCSLADWLGSWTTTNTFLFNEDAPSDINALRTYFQDRQQDASRVLELSGLVSNKRCYEGVHALLDNGYQPRQLQVLVDALPVAPGLTVIEAPTGSGKTETALAYAWKLIDQQIADSVIFALPTQATANAMLTRMEASASHLFSSPNLILAHGNSRFNHLFQSIKSRAITEQGQEEAWVQCCQWLSQSNKKVFLGQIGVCTIDQVLISVLPVKHRFIRGLGIGRSVLIVDEVHAYDTYMNGLLEAVLKAQADVGGSVILLSATLPMKQKQKLLDTYGLHTDPVENNSAYPLINWRGVNGAQRFDLLAHPEQLPPRFSIQPEPICLADMLPDLTMLERMIAAANAGAQVCLICNLVDVAQVCYQRLKELNNTQVDIDLFHARFTLNDRREKENRVISNFGKNGKRNVGRILVATQVVEQSLDVDFDWLITQHCPADLLFQRLGRLHRHHRKYRPAGFEIPVATILLPDGEGYGRHEHIYSNVRVMWRTQQHIEELNGASLFFPDAYRQWLDSIYDDAEMDEPEWVGNGMDKFESAECEKRFKARKVLQWAEEYSLQDNDETILAVTRDGEMSLPLLPYVQTSSGKQLLDGQVYEDLSHEQQYEALALNRVNVPFTWKRSFSEVVDEDGLLWLEGKQNLDGWVWQGNSIVITYTGDEGMTRVIPANPKGDPTNRAKGLEAVSVASMNLLIDNWIPVRPRNGGKVQIINLQSLYCSRDQWRLSLPRDDMELAALALLVCIGQIIAPAKDDVEFRHRIMNPLTEDEFQQLIAPWIDMFYLNHAEHPFMQTKGVKANDVTPMEKLLAGVSGATNCAFVNQPGQGEALCGGCTAIALFNQANQAPGFGGGFKSGLRGGTPVTTFVRGIDLRSTVLLNVLTLPRLQKQFPNESHTENQPTWIKPIKSNESIPASSIGFVRGLFWQPAHIELCDPIGIGKCSCCGQESNLRYTGFLKEKFTFTVNGLWPHPHSPCLVTVKKGEVEEKFLAFTTSAPSWTQISRVVVDKIIQNENGNRVAAVVNQFRNIAPQSPLELIMGGYRNNQASILERRHDVLMFNQGWQQYGNVINEIVTVGLGYKTALRKALYTFAEGFKNKDFKGAGVSVHETAERHFYRQSELLIPDVLANVNFSQADEVIADLRDKLHQLCEMLFNQSVAPYAHHPKLISTLALARATLYKHLRELKPQGGPSNG
For B1, the binding entry in assay [1] is given as “binds”.

B2: FokI-(Sharkey-KKR)-Cse1 (protein)
chain: MAQLVKSELEEKKSELRHKLKYVPHEYIELIEIARNPTQDRILEMKVMEFFMKVYGYRGEHLGGSRKPDGAIYTVGSPIDYGVIVDTKAYSGGYNLPIGQADEMQRYVKENQTRNKHINPNEWWKVYPSSVTEFKFLFVSGHFKGNYKAQLTRLNRKTNCNGAVLSVEELLIGGEMIKAGTLTLEEVRRKFNNGEINFADPTNRAKGLEAVSVASMNLLIDNWIPVRPRNGGKVQIINLQSLYCSRDQWRLSLPRDDMELAALALLVCIGQIIAPAKDDVEFRHRIMNPLTEDEFQQLIAPWIDMFYLNHAEHPFMQTKGVKANDVTPMEKLLAGVSGATNCAFVNQPGQGEALCGGCTAIALFNQANQAPGFGGGFKSGLRGGTPVTTFVRGIDLRSTVLLNVLTLPRLQKQFPNESHTENQPTWIKPIKSNESIPASSIGFVRGLFWQPAHIELCDPIGIGKCSCCGQESNLRYTGFLKEKFTFTVNGLWPHPHSPCLVTVKKGEVEEKFLAFTTSAPSWTQISRVVVDKIIQNENGNRVAAVVNQFRNIAPQSPLELIMGGYRNNQASILERRHDVLMFNQGWQQYGNVINEIVTVGLGYKTALRKALYTFAEGFKNKDFKGAGVSVHETAERHFYRQSELLIPDVLANVNFSQADEVIADLRDKLHQLCEMLFNQSVAPYAHHPKLISTLALARATLYKHLRELKPQGGPSNG
For the molecule B2, in assay [2], the binding result is given as “binds”.

B3: FokI-(Sharkey-ELD)-Cse1 (protein)
chain: MAQLVKSELEEKKSELRHKLKYVPHEYIELIEIARNPTQDRILEMKVMEFFMKVYGYRGEHLGGSRKPDGAIYTVGSPIDYGVIVDTKAYSGGYNLPIGQADEMERYVEENQTRDKHLNPNEWWKVYPSSVTEFKFLFVSGHFKGNYKAQLTRLNHITNCNGAVLSVEELLIGGEMIKAGTLTLEEVRRKFNNGEINFADPTNRAKGLEAVSVASMNLLIDNWIPVRPRNGGKVQIINLQSLYCSRDQWRLSLPRDDMELAALALLVCIGQIIAPAKDDVEFRHRIMNPLTEDEFQQLIAPWIDMFYLNHAEHPFMQTKGVKANDVTPMEKLLAGVSGATNCAFVNQPGQGEALCGGCTAIALFNQANQAPGFGGGFKSGLRGGTPVTTFVRGIDLRSTVLLNVLTLPRLQKQFPNESHTENQPTWIKPIKSNESIPASSIGFVRGLFWQPAHIELCDPIGIGKCSCCGQESNLRYTGFLKEKFTFTVNGLWPHPHSPCLVTVKKGEVEEKFLAFTTSAPSWTQISRVVVDKIIQNENGNRVAAVVNQFRNIAPQSPLELIMGGYRNNQASILERRHDVLMFNQGWQQYGNVINEIVTVGLGYKTALRKALYTFAEGFKNKDFKGAGVSVHETAERHFYRQSELLIPDVLANVNFSQADEVIADLRDKLHQLCEMLFNQSVAPYAHHPKLISTLALARATLYKHLRELKPQGGPSNG
Turning to B3, the binding entry in assay [3] is recorded as “binds”.
